From patent US20090087428A1
Results are given in words; binding and its absence hold for the method and conditions named. Some entries that bind do so weakly or less than the wild type.

Sequences of proteins named here, by UniProt entry; tags and fusion partners are left off. A change or cut given only in a name is not applied to a line headed by its entry.
UniProt P31994: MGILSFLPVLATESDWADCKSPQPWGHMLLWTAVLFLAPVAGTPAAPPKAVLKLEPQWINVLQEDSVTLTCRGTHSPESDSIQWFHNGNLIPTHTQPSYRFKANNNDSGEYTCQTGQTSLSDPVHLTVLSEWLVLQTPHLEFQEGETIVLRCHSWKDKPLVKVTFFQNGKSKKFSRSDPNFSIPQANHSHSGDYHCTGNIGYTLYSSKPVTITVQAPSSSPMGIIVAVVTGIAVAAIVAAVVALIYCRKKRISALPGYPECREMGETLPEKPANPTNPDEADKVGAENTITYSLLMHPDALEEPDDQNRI

What was measured:
[1] = molecular target: GPI-huFcγRIIB on CHO cells (human) (UniProt P31994); assay: indirect immunofluorescence, flow cytometry on CHO cells (FIG. 5)
[2] = molecular target: GST-huFcγRIIB (human FcγRIIB extracellular domain-Gly-His6-GST fusion protein) (human) [GST: P08515]; assay: ELISA, plate-coated GST fusion proteins (FIG. 4)

B1: Antibody 5A6.2.1 (anti-human FcγRIIB monoclonal antibody) (antibody)
VH: EVKLEESGGGLVQPGGSMKLSCVASGFTFSDAWMDWVRQSPERGLEWVAEIRSKPNNHATYYAESVKGRFTISRDDSKSSVYLQMTSLRPEDTGIYYCTHFDYWGQGTTLTVSSAKTTGPSVFPLAPSSKSTSGGTAALGCLVKDYFPEPVTVSWNSGALTSGVHTFPAVLQSSGLYSLSSVVTVPSSSLGTQTYICNVNHKPSNTKVDKKVEPKSCDKTHT
VL: DIQMTQSPSSLSASLGERVSLTCRASQEISGYLSWFQQKPDGTIKRLIYAASALDSGVPKRFSGSWSGSDYSLTISSLESEDFADYYCLQYVSYPLTFGAGTKLELKRTVAAPSVFIFPPSDEQLKSGTASVVCLLNNFYPREAKVQWKVDNALQSGNSQESVTEQDSKDSTYSLSSTLTLSKADYEKHKVYACEVTHQGLSSPVTKSFNRGEC
Question: With B1 as the binder, how does the binding [1] read?
Answer: The binding was “binds”.

Question: And the binding [2]?
Answer: The binding was “binds”.
